# Data from US12496303B2, “Conditioning agents for use in allogeneic hematopoietic stem cell transplantation” (priority 2020, dated 2025).
# Conditions: baricitinib pumps, earliest time points, corrected by later timepoints
# Procedure: To investigate the efficacy of ADCs for allo-HSCT conditioning, two transplant models were used (see e.g., FIG. 2A): a miHA-mismatched BALB/c-Ly5.1→DBA/2 model and a haploidentical CB6F1→B6 (F1-to-parent) model MHC-mismatched for H-2d in the host-versus-graft direction. CD45-SAP was chosen for conditioning in these studies to leverage its lymphodepleting activity to overcome graft rejection.
# Mice were injected with CD45-SAP or cKit-SAP at doses indicated in each figure at 7 days pre-transplant (d-7). In general, 3 mg/kg (75 μg) CD45-SAP, and 0.4 mg/kg or 2 mg/kg (10 or 50 μg, respectively) cKit-SAP were used. On transplant day (d0), mice received 10×10^6 whole donor bone marrow cells via the retroorbital injection.
# CD4^+ and CD8^+ T cell depletion was done using clones GK1.5 and YTS169.4, respectively, and NK cell depletion done using clone PK136. […] All antibodies were administered intraperitoneally at 250 μg per dose following the schema for each experiment.
# Immediately prior to injection, these DMSO stocks were thawed, diluted 1:10 in PBS, and injected at 200 μl/mouse subcutaneously (400 μg daily dose).
# ALZET subcutaneous osmotic pumps (Model 2004) were used to continuously deliver JAK1/2 inhibitors to mice for 28 days at a rate of 0.25 μL/hour (6 μL/day). A vehicle of 50% dimethyl sulfoxide (DMSO)/50% polyethylene glycol 400 (PEG-400) was used for all experiments. […]
smiles,measurement,value
CCS(=O)(=O)N1CC(CC#N)(n2cc(-c3ncnc4[nH]ccc34)cn2)C1 [baricitinib],anemia / CBCs,mild anemia
